# Paper PMC7280208
# By UniProt entry, the sequences of proteins in these tests, tags left out. Residues count along the entry.
# UniProt Q9JI78, residues 1-119: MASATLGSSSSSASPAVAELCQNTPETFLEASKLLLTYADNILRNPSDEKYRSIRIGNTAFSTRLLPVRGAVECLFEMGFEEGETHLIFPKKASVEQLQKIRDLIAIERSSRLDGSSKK
# UniProt P54727, residues 1-82: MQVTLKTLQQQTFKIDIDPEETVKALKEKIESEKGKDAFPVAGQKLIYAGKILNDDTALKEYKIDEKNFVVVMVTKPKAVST
# Results are given in words; binding and its absence hold for the method and conditions named. Some results given as binding are weak or reduced against the parent protein; the word gives no strength.
# Experiments:
# [1] = biological target: PUB domain of peptide:N-glycanase (UniProt Q9JI78); assay: condition: only in PBS (137 mM NaCl, 2.7 mM KCl, pH 7.4); 200 µM of each protein; AUC; sedimentation velocity (SV-AUC) of hHR23b-UBL (200 µM), PNGase-PUB (200 µM) and their mixture (200 µM each) in PBS (8.1 mM Na2HPO4, 1.47 mM KH2PO4, 137 mM NaCl, 2.7 mM KCl, pH 7.4); 60,000 r.p.m., Rayleigh interference optics, 25 °C; both purified
# [2] = biological target: PUB domain of peptide:N-glycanase (UniProt Q9JI78); assay: AUC; sedimentation velocity (SV-AUC) of hHR23b-UBL (200 µM), PNGase-PUB (200 µM) and their mixture (200 µM each) in 10 mM sodium phosphate buffer (PB, pH 7.0, no salt); 60,000 r.p.m., Rayleigh interference optics, 25 °C; both purified
# [3] = biological target: PUB domain of peptide:N-glycanase (UniProt Q9JI78); assay: AUC; sedimentation equilibrium (SE-AUC), absorbance optics; [hHR23b-UBL] = [PNGase-PUB] = 100, 75 and 50 uM; 20,000, 30,000 and 35,000 r.p.m.; 10 mM sodium phosphate buffer pH 7.0; 25 °C; global fit with one KD (SEDPHAT, A + B to AB model); both purified
substance,measurement,setting,value
ubiquitin-like domain of the proteasome shuttle factor hHR23b (from UniProt P54727 1-82) (domain or fragment),binding,[1],no binding
same,binding,[2],binds weakly
same,binding,[3],binds weakly
